Results are given in words; binding and its absence hold for the method and conditions named. Some entries that bind do so weakly or less than the wild type. Values belong to the binder of their own block, whether it stands above or below them.
Legend:
[1] = molecular target: T1, YbbP (E. coli, UniProt P77504 1-804); experiment: cryo-EM structure; YbbAP with AMP-PNP, co-expressed and co-purified (Ni-affinity, SEC), 0.01% LMNG; 3.7 Å; both purified
T1 construct: YbbP, transmembrane component (10 transmembrane helices, two periplasmic domains) of the YbbAP Type VII ABC transporter, Escherichia coli; source: size exclusion chromatography for structure determination), in 0.01% LMNG
T1 sequence: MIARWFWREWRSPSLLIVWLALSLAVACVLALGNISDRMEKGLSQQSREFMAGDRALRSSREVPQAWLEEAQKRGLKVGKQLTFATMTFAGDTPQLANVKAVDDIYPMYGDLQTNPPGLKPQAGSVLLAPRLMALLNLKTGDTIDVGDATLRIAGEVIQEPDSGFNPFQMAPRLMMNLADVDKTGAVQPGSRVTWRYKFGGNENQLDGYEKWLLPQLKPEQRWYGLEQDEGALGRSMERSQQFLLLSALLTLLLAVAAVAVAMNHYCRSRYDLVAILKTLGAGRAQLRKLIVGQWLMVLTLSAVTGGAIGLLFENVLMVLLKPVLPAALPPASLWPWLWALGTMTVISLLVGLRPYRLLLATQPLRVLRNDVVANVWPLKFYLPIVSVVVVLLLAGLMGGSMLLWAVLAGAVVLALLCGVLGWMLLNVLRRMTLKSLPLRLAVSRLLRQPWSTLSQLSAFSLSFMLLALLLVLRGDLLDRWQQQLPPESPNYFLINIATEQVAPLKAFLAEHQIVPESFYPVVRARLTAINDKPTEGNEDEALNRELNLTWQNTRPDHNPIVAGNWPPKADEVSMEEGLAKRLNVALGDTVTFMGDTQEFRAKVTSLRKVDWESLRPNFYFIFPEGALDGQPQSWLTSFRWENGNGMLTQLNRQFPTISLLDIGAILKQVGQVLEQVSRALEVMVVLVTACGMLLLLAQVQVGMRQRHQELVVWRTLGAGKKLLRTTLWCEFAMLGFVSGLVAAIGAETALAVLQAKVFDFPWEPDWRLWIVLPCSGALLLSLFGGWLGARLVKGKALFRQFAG

[2] = molecular target: T1, YbbP; experiment: cryo-EM structure; nucleotide-free (apo) YbbAP, co-expressed and co-purified (Ni-affinity, SEC), 0.01% LMNG; 4.0 Å; both purified
[3] = molecular target: T2, YbbA (E. coli) (UniProt P0A9T8); experiment: co-purification (Ni-affinity chromatography, SDS-PAGE); His-tag on YbbA; YbbA, YbbP and TesA co-expressed in E. coli C43(DE3); Ni-IMAC in detergent; also with ATP or an ATP analogue added
T2 sequence: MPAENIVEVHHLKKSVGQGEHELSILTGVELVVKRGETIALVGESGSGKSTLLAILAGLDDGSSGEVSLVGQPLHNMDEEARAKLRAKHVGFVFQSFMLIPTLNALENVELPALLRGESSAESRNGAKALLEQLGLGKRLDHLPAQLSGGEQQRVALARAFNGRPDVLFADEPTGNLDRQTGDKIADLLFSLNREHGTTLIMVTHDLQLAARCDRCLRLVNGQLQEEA

[4] = molecular target: T3, YbbAP ABC transporter (E. coli) (UniProt P0A9T8+P77504); experiment: as above
T3 sequence 1: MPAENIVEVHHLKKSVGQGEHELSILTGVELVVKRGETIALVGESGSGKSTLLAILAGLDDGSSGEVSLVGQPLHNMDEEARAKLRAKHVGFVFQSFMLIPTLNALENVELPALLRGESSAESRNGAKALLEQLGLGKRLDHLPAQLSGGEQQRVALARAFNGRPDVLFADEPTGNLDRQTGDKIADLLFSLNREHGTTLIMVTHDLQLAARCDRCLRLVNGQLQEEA
T3 sequence 2: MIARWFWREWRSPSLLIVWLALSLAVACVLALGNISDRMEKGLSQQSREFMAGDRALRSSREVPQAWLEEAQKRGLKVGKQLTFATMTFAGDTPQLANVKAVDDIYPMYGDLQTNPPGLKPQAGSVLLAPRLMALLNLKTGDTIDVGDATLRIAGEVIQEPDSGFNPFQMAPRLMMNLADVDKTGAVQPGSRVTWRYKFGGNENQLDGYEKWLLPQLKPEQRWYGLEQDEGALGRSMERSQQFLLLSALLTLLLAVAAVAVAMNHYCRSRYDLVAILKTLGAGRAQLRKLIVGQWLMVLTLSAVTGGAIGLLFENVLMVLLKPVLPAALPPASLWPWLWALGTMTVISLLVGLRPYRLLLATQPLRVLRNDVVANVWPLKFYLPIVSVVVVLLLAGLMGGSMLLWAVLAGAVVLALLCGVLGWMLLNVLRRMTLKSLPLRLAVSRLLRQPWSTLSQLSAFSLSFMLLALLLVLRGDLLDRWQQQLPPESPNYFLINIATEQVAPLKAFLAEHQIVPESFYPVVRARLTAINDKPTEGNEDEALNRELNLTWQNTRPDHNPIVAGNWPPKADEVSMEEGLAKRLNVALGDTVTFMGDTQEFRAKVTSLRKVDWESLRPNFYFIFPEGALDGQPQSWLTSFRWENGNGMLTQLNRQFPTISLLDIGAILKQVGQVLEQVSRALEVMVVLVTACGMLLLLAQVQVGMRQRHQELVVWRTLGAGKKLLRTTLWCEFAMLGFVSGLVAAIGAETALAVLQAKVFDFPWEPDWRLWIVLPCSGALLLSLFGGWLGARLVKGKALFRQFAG

[5] = molecular target: T1, YbbP; experiment: as above
[6] = molecular target: T3, YbbAP ABC transporter (E. coli); experiment: cryo-EM structure; YbbAP-TesA(Ser36Ala) complex with AMP-PNP, co-expressed and co-purified (Ni-affinity, SEC), 0.01% LMNG; 4.6 Å; both purified

- binding [1]: binds
- binding [2]: binds
B1: YbbA (natural protein, E. coli)
chain: MPAENIVEVHHLKKSVGQGEHELSILTGVELVVKRGETIALVGESGSGKSTLLAILAGLDDGSSGEVSLVGQPLHNMDEEARAKLRAKHVGFVFQSFMLIPTLNALENVELPALLRGESSAESRNGAKALLEQLGLGKRLDHLPAQLSGGEQQRVALARAFNGRPDVLFADEPTGNLDRQTGDKIADLLFSLNREHGTTLIMVTHDLQLAARCDRCLRLVNGQLQEEA
notes: also called ABC domain; source: size exclusion chromatography for structure determination), in 0.01% LMNG

- binding [3]: binds
B2: YbbP (protein, UniProt P77504 1-804)
chain: MIARWFWREWRSPSLLIVWLALSLAVACVLALGNISDRMEKGLSQQSREFMAGDRALRSSREVPQAWLEEAQKRGLKVGKQLTFATMTFAGDTPQLANVKAVDDIYPMYGDLQTNPPGLKPQAGSVLLAPRLMALLNLKTGDTIDVGDATLRIAGEVIQEPDSGFNPFQMAPRLMMNLADVDKTGAVQPGSRVTWRYKFGGNENQLDGYEKWLLPQLKPEQRWYGLEQDEGALGRSMERSQQFLLLSALLTLLLAVAAVAVAMNHYCRSRYDLVAILKTLGAGRAQLRKLIVGQWLMVLTLSAVTGGAIGLLFENVLMVLLKPVLPAALPPASLWPWLWALGTMTVISLLVGLRPYRLLLATQPLRVLRNDVVANVWPLKFYLPIVSVVVVLLLAGLMGGSMLLWAVLAGAVVLALLCGVLGWMLLNVLRRMTLKSLPLRLAVSRLLRQPWSTLSQLSAFSLSFMLLALLLVLRGDLLDRWQQQLPPESPNYFLINIATEQVAPLKAFLAEHQIVPESFYPVVRARLTAINDKPTEGNEDEALNRELNLTWQNTRPDHNPIVAGNWPPKADEVSMEEGLAKRLNVALGDTVTFMGDTQEFRAKVTSLRKVDWESLRPNFYFIFPEGALDGQPQSWLTSFRWENGNGMLTQLNRQFPTISLLDIGAILKQVGQVLEQVSRALEVMVVLVTACGMLLLLAQVQVGMRQRHQELVVWRTLGAGKKLLRTTLWCEFAMLGFVSGLVAAIGAETALAVLQAKVFDFPWEPDWRLWIVLPCSGALLLSLFGGWLGARLVKGKALFRQFAG

- binding [4]: binds
- binding [5]: binds
B3: TesA (enzyme, UniProt P0ADA1 27-208)
chain: ADTLLILGDSLSAGYRMSASAAWPALLNDKWQSKTSVVNASISGDTSQQGLARLPALLKQHQPRWVLVELGGNDGLRGFQPQQTEQTLRQILQDVKAANAEPLLMQIRLPANYGRRYNEAFSAIYPKLAKEFDVPLLPFFMEEVYLKPQWMQDDGIHPNRDAQPFIADWMAKQLQPLVNHDS

- binding [6]: binds
- binding [4]: binds
B4: TesA Ser36Ala (enzyme, E. coli, UniProt P0ADA1 27-208, looked up)
chain: ADTLLILGDALSAGYRMSASAAWPALLNDKWQSKTSVVNASISGDTSQQGLARLPALLKQHQPRWVLVELGGNDGLRGFQPQQTEQTLRQILQDVKAANAEPLLMQIRLPANYGRRYNEAFSAIYPKLAKEFDVPLLPFFMEEVYLKPQWMQDDGIHPNRDAQPFIADWMAKQLQPLVNHDS
notes: TesA, periplasmic multifunctional esterase/thioesterase/lysophospholipase, Escherichia coli, with the catalytic site mutation Ser36Ala; printed residue numbers fit the precursor with its signal peptide; also called TesA catalytic site mutation (Ser36Ala); source: size exclusion chromatography for structure determination), in 0.01% LMNG

Reference: article PMC12646458, “Structural characterization of the YbbAP-TesA ABC transporter identifies it as a lipid hydrolase complex that extracts hydrophobic compounds from the bacterial inner membrane” (PLOS Biology, 2025)
